The target in one assay is T1, GST-GP73 fusion protein (UniProt Q8NBJ4).
T1 sequence: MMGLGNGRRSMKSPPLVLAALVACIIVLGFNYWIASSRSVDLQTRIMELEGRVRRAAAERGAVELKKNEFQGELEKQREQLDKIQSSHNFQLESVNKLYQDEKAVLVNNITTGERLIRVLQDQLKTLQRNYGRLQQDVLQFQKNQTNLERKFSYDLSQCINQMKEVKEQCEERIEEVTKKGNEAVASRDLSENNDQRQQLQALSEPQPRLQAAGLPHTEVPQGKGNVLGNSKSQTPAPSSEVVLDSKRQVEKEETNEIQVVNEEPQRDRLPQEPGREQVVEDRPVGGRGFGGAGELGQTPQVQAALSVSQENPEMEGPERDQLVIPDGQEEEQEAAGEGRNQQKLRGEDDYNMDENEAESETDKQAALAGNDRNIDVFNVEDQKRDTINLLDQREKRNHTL
Put plainly: pull-down; 5 ug purified GST or GST-GP73 bound to glutathione beads, incubated with 293T cell lysate for 2 hrs at 4 °C; washed with lysis buffer; immunoblot with SCAP or SREBP1 antibody; only the target purified. On the technique in general: Immunoblotting shows a protein as a band on a membrane.

The target in another assay is T2, Flag-SCAP (UniProt Q12770).
T2 sequence: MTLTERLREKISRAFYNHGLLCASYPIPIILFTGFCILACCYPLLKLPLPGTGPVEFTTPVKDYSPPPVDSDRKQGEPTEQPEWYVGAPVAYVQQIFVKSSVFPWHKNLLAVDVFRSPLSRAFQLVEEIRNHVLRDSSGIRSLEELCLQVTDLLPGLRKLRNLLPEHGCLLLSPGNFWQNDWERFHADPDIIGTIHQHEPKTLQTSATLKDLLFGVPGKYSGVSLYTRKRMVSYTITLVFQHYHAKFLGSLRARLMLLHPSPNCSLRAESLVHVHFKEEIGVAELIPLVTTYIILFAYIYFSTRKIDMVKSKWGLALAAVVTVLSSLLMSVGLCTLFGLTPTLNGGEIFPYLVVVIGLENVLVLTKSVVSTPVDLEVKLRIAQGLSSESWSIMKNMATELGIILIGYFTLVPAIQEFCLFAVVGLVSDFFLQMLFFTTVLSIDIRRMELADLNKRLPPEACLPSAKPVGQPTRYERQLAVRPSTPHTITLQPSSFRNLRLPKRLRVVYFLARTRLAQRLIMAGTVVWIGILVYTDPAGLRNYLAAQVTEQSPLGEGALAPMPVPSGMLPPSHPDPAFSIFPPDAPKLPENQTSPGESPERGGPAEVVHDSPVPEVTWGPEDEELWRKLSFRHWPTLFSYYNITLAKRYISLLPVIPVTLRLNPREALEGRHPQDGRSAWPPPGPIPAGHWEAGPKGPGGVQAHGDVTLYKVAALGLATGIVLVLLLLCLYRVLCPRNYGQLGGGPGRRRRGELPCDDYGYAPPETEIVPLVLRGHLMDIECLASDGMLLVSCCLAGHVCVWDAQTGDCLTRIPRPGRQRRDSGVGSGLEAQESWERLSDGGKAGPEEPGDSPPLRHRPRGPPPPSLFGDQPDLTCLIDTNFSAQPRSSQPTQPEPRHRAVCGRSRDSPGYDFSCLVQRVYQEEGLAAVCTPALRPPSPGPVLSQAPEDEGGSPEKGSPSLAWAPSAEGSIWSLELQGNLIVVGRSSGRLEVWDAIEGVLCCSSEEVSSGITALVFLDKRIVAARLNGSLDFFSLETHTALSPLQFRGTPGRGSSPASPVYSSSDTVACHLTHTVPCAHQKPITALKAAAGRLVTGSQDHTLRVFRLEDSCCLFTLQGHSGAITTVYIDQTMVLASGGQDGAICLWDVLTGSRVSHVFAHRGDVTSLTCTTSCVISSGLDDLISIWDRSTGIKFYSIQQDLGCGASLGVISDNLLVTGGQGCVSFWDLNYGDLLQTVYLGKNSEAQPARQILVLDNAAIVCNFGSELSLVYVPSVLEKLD
In words: co-IP; anti-Flag immunoprecipitation from lysates of transfected cells (Flag-SCAP with Myc-GP73 or Myc-vector) in NP40 buffer (1% NP40, 150 mM NaCl, 40 mM Tris pH 7.5), protein G-agarose; immunoblot.

No constants are given. Whether binding was seen depends on the method and setting. Binding seen in cells or lysates may run through a third protein. Some entries that bind do so weakly or less than the wild type. Tags and fused reporters may be left off the sequences shown.

B1: SREBP cleavage-activating protein (SCAP), endogenous (protein, UniProt Q12770 1-1279)
chain: MTLTERLREKISRAFYNHGLLCASYPIPIILFTGFCILACCYPLLKLPLPGTGPVEFTTPVKDYSPPPVDSDRKQGEPTEQPEWYVGAPVAYVQQIFVKSSVFPWHKNLLAVDVFRSPLSRAFQLVEEIRNHVLRDSSGIRSLEELCLQVTDLLPGLRKLRNLLPEHGCLLLSPGNFWQNDWERFHADPDIIGTIHQHEPKTLQTSATLKDLLFGVPGKYSGVSLYTRKRMVSYTITLVFQHYHAKFLGSLRARLMLLHPSPNCSLRAESLVHVHFKEEIGVAELIPLVTTYIILFAYIYFSTRKIDMVKSKWGLALAAVVTVLSSLLMSVGLCTLFGLTPTLNGGEIFPYLVVVIGLENVLVLTKSVVSTPVDLEVKLRIAQGLSSESWSIMKNMATELGIILIGYFTLVPAIQEFCLFAVVGLVSDFFLQMLFFTTVLSIDIRRMELADLNKRLPPEACLPSAKPVGQPTRYERQLAVRPSTPHTITLQPSSFRNLRLPKRLRVVYFLARTRLAQRLIMAGTVVWIGILVYTDPAGLRNYLAAQVTEQSPLGEGALAPMPVPSGMLPPSHPDPAFSIFPPDAPKLPENQTSPGESPERGGPAEVVHDSPVPEVTWGPEDEELWRKLSFRHWPTLFSYYNITLAKRYISLLPVIPVTLRLNPREALEGRHPQDGRSAWPPPGPIPAGHWEAGPKGPGGVQAHGDVTLYKVAALGLATGIVLVLLLLCLYRVLCPRNYGQLGGGPGRRRRGELPCDDYGYAPPETEIVPLVLRGHLMDIECLASDGMLLVSCCLAGHVCVWDAQTGDCLTRIPRPGRQRRDSGVGSGLEAQESWERLSDGGKAGPEEPGDSPPLRHRPRGPPPPSLFGDQPDLTCLIDTNFSAQPRSSQPTQPEPRHRAVCGRSRDSPGYDFSCLVQRVYQEEGLAAVCTPALRPPSPGPVLSQAPEDEGGSPEKGSPSLAWAPSAEGSIWSLELQGNLIVVGRSSGRLEVWDAIEGVLCCSSEEVSSGITALVFLDKRIVAARLNGSLDFFSLETHTALSPLQFRGTPGRGSSPASPVYSSSDTVACHLTHTVPCAHQKPITALKAAAGRLVTGSQDHTLRVFRLEDSCCLFTLQGHSGAITTVYIDQTMVLASGGQDGAICLWDVLTGSRVSHVFAHRGDVTSLTCTTSCVISSGLDDLISIWDRSTGIKFYSIQQDLGCGASLGVISDNLLVTGGQGCVSFWDLNYGDLLQTVYLGKNSEAQPARQILVLDNAAIVCNFGSELSLVYVPSVLEKLD
Regarding B1, the binding entry in the assay with GST-GP73 fusion protein was “binds”.

B2: Myc-GP73 (protein, UniProt Q8NBJ4 1-401)
chain: MMGLGNGRRSMKSPPLVLAALVACIIVLGFNYWIASSRSVDLQTRIMELEGRVRRAAAERGAVELKKNEFQGELEKQREQLDKIQSSHNFQLESVNKLYQDEKAVLVNNITTGERLIRVLQDQLKTLQRNYGRLQQDVLQFQKNQTNLERKFSYDLSQCINQMKEVKEQCEERIEEVTKKGNEAVASRDLSENNDQRQQLQALSEPQPRLQAAGLPHTEVPQGKGNVLGNSKSQTPAPSSEVVLDSKRQVEKEETNEIQVVNEEPQRDRLPQEPGREQVVEDRPVGGRGFGGAGELGQTPQVQAALSVSQENPEMEGPERDQLVIPDGQEEEQEAAGEGRNQQKLRGEDDYNMDENEAESETDKQAALAGNDRNIDVFNVEDQKRDTINLLDQREKRNHTL
In the case of B2, the binding entry with Flag-SCAP was “binds”.

These data come from publication PMC5668365.
